# Test results taken from the supplement of paper PMC9135407.
# Several values for one entry are separate records, joined by “and”; a condition that tells them apart may be missing. Equal values may be shown once. Where a name gives a salt, the structure may show the parent alone. ± gives the standard deviation of the averaged measurements. The list shows a part of the results. Baselines shift from plate to plate; read single values as rough.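 Assay uses culture-activated primary human stellate myofibroblasts; lipid droplet recovery indicates inactivation. Measured: proportion of Hoechst-counted cells over a plate-specific Bodipy cutoff, duplicate wells, DMSO and nortriptyline as per-plate negative and positive controls. A hit scores, control-normalized, above the plate's top-tenth-percentile nortriptyline wells or ranks among its three best wells. Final well concentrations not reported.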
# System: primary human hepatic stellate cells (donor 1)
# Assay: percent Bodipy-positive cells; higher = more lipid droplet accumulation
# Conditions: 48 h
# [1] = library stock concentration: 10 mM
# [2] = library stock concentration: 1 mM
# [3] = library stock concentration: 80 uM
# [4] = library stock concentration: 400 uM
# [5] = library stock concentration: 2 mM
# [6] = library stock concentration: 3.33 mM
# [7] = library stock concentration: 11.6 mM
# [8] = library stock concentration: 5.9 mM
smiles,measurement,setting,value
Fc1ccc([C@@H]2CCNC[C@H]2COc2ccc3c(c2)OCO3)cc1.O=C(O)/C=C\C(=O)O [Paroxetine maleate],percent Bodipy-positive cells,[1],99.05 ± 0.55%
CCCCC/C=C\C/C=C\CCCCCCCC(=O)OCC(O)CO (stereo not given) [1-Linoleoyl Glycerol],percent Bodipy-positive cells,[2],13.5 ± 10%
CC1(C)CC(=O)C(C2C3=C(CC(C)(C)CC3=O)Oc3ccccc32)C(=O)C1 (stereo not given),percent Bodipy-positive cells,[1],8.49 ± 0.19%
CC(C)(C)OC(=O)Nc1ccc(-c2cc(C(=O)NCCCCCCC(=O)NO)no2)cc1,percent Bodipy-positive cells,[2],20.4 ± 5.1%
Nc1nc(Nc2ccccc2)nc2c1ncn2[C@@H]1O[C@H](CO)[C@@H](O)[C@H]1O,percent Bodipy-positive cells,[1],6.29 ± 1.8%
CC(C)(C)NCC(O)COc1cccc2c1CC(O)C(O)C2 (stereo not given) [Nadolol],percent Bodipy-positive cells,,7.32 ± 0.75%
same,percent Bodipy-positive cells,[1],55.5 ± 17%
Cc1nc2ccc(-n3ncc(C(=O)c4cc5ccccc5[nH]4)c3N)cc2[nH]1,percent Bodipy-positive cells,[1],74.1 ± 6%
Cc1cccc(C)c1NC(=O)C[N+](C)(C)C,percent Bodipy-positive cells,[1],9.84 ± 0.12%
O=C(OCCN1CCCCC1)c1c[nH]c2ccccc12,percent Bodipy-positive cells,[1],25.6 ± 3%
C[C@H](CCC(=O)NCCS(=O)(=O)O)[C@H]1CC[C@H]2[C@@H]3[C@H](O)C[C@@H]4C[C@H](O)CC[C@]4(C)[C@H]3C[C@H](O)[C@]12C [Sodium Taurocholate hydrate],percent Bodipy-positive cells,[1],35.7 ± 5.5%
Nc1ccccc1NC(=O)c1ccc(CNc2nccc(-c3cccnc3)n2)cc1 [Mocetinostat],percent Bodipy-positive cells,[3],53.3 ± 13%
same,percent Bodipy-positive cells,[4],62.9 ± 8.1%
Nc1ccccc1NC(=O)c1ccc(CNc2nccc(-c3cccnc3)n2)cc1 [Mocetinostat (MGCD0103)],percent Bodipy-positive cells,[1],80.1 ± 7.3%
Cc1ccc(S(=O)(=O)/C=C/C#N)cc1,percent Bodipy-positive cells,[3],14.7 ± 1.6%
same,percent Bodipy-positive cells,[4],7.19 ± 2%
same,percent Bodipy-positive cells,[5],98.9 ± 1.6%
same,percent Bodipy-positive cells,[6],99.42 ± 0.82%
same,percent Bodipy-positive cells,library stock concentration: 24.1 mM,72.6 ± 10%
O=C(c1cccnc1)N1CCOCC1,percent Bodipy-positive cells,[1],15.8 ± 4%
CNCCCC12CCC(c3ccccc31)c1ccccc12.Cl [Maprotiline hydrochloride],percent Bodipy-positive cells,[1],95.5 ± 1.1%
Cn1sc(=O)n(Cc2ccccc2)c1=O [GSK-3b Inhibitor I],percent Bodipy-positive cells,[6],13.4 ± 3.7%
CC(C)Cn1c(=O)n(C)c(=O)c2nc[nH]c21 [Isobutylmethylxanthine],percent Bodipy-positive cells,library stock concentration: 9 mM,7.54 ± 3.2%
"COc1cc2c(cc1Cc1cccc(Cl)c1F)c(=O)c(C(=O)O)cn2[C@H](CO)C(C)C [Elvitegravir (GS-9137, JTK-303)]",percent Bodipy-positive cells,[6],18.5 ± 6.7%
same,percent Bodipy-positive cells,[1],13.5 ± 3.3%
COc1ccc2cc3[n+](cc2c1OC)CCc1cc2c(cc1-3)OCO2 [Berberine chloride],percent Bodipy-positive cells,,29.3 ± 6.9%
same,percent Bodipy-positive cells,[1],25.8 ± 9.5%
COc1ccc2cc3[n+](cc2c1OC)CCc1cc2c(cc1-3)OCO2 [Berberine HCl],percent Bodipy-positive cells,[6],16.6 ± 14%
same,percent Bodipy-positive cells,[1],10.7 ± 6.2%
"CC[C@@H]1Cc2cc(O)ccc2C2=C1c1ccc(O)cc1C[C@H]2CC [(R,R)-cis-Diethyl tetrahydro-2,8-chrysenediol]",percent Bodipy-positive cells,[1],46.2 ± 8.7%
Nc1ncnc2c1ncn2[C@@H]1O[C@H](CO)C[C@H]1O [Cordycepin],percent Bodipy-positive cells,[1],5.99 ± 0.82%
CCCCCCCCCCCCCCCCOC[C@H](COP(=O)([O-])OCC[N+](C)(C)C)OC(=O)CCC [Butanoyl PAF],percent Bodipy-positive cells,[2],8.07 ± 1.4%
Cc1c2oc3c(C)ccc(C(=O)N[C@@H]4C(=O)N[C@H](C(C)C)C(=O)N5CCC[C@H]5C(=O)N(C)CC(=O)N(C)[C@@H](C(C)C)C(=O)O[C@@H]4C)c3nc-2c(C(=O)N[C@@H]2C(=O)N[C@H](C(C)C)C(=O)N3CCC[C@H]3C(=O)N(C)CC(=O)N(C)[C@@H](C(C)C)C(=O)O[C@@H]2C)c(N)c1=O [Dactinomycin],percent Bodipy-positive cells,library stock concentration: 1.6 mM,29.1 ± 2.6%
same,percent Bodipy-positive cells,[1],72.8 ± 3.1%
Cc1c2oc3c(C)ccc(C(=O)N[C@@H]4C(=O)N[C@H](C(C)C)C(=O)N5CCC[C@H]5C(=O)N(C)CC(=O)N(C)[C@@H](C(C)C)C(=O)O[C@@H]4C)c3nc-2c(C(=O)N[C@@H]2C(=O)N[C@H](C(C)C)C(=O)N3CCC[C@H]3C(=O)N(C)CC(=O)N(C)[C@@H](C(C)C)C(=O)O[C@@H]2C)c(N)c1=O [Actinomycin D],percent Bodipy-positive cells,,47.98 ± 0.41%
Cc1c2oc3c(C)ccc(C(=O)N[C@@H]4C(=O)N[C@H](C(C)C)C(=O)N5CCC[C@H]5C(=O)N(C)CC(=O)N(C)[C@@H](C(C)C)C(=O)O[C@@H]4C)c3nc-2c(C(=O)N[C@@H]2C(=O)N[C@H](C(C)C)C(=O)N3CCC[C@H]3C(=O)N(C)CC(=O)N(C)[C@@H](C(C)C)C(=O)O[C@@H]2C)c(N)c1=O,percent Bodipy-positive cells,[1],70.3 ± 3.6%
CCSC(N)=Nc1ccc(C(F)(F)F)cc1,percent Bodipy-positive cells,[2],7.4 ± 0.64%
COc1ccc2c(c1)c(CC(=O)OCC(=O)O)c(C)n2C(=O)c1ccc(Cl)cc1 [Acemetacin],percent Bodipy-positive cells,,23.4 ± 3.5%
same,percent Bodipy-positive cells,[6],6.42 ± 2.5%
same,percent Bodipy-positive cells,library stock concentration: 4.8 mM,9.54 ± 5.6%
same,percent Bodipy-positive cells,[1],9.05% and 18.1%
NC(=O)c1cc[n+](CC2=C(C(=O)[O-])N3C(=O)[C@@H](NC(=O)Cc4cccs4)[C@H]3SC2)cc1 [Cefalonium],percent Bodipy-positive cells,,7.92 ± 2.5%
Cc1nccn1CC1CCc2c(c3ccccc3n2C)C1=O (stereo not given) [Ondansetron HCl],percent Bodipy-positive cells,[6],7.38 ± 5.4%
same,percent Bodipy-positive cells,[1],17.7 ± 1.7%
Cc1nccn1CC1CCc2c(c3ccccc3n2C)C1=O (stereo not given),percent Bodipy-positive cells,[1],14.8 ± 1.8%
Cc1nccn1CC1CCc2c(c3ccccc3n2C)C1=O (stereo not given) [Ondansetron Hydrochloride],percent Bodipy-positive cells,,14.7 ± 7.5%
Cc1nccn1CC1CCc2c(c3ccccc3n2C)C1=O (stereo not given) [Ondansetron],percent Bodipy-positive cells,library stock concentration: 6.8 mM,15.3 ± 8.3%
same,percent Bodipy-positive cells,[1],51.2 ± 3.6%
CC(=O)NCCCCCCNC(C)=O,percent Bodipy-positive cells,[1],7.24 ± 2%
O=C1C(O)=C(O)C(=O)C(O)=C1O [Tetroquinone],percent Bodipy-positive cells,[1],24.4 ± 5.7%
same,percent Bodipy-positive cells,[7],10.5 ± 1.7%
"O=C1C(O)=C(O)C(=O)C(O)=C1O [Tetrahydroxy-1,4-quinone monohydrate]",percent Bodipy-positive cells,,10.1 ± 1.1%
O=C(NCCCNc1nc(Nc2cccc(NC(=O)N3CCCC3)c2)ncc1I)c1cccs1,percent Bodipy-positive cells,[1],82.3 ± 1.7%
CC(=O)NC[C@H]1CN(c2ccc(N3CCOCC3)c(F)c2)C(=O)O1 [Linezolid],percent Bodipy-positive cells,[6],7.94 ± 1.8%
same,percent Bodipy-positive cells,[8],6.55 ± 2.3%
same,percent Bodipy-positive cells,[1],16.6% and 32.8%
CC(=O)NC[C@H]1CN(c2ccc(N3CCOCC3)c(F)c2)C(=O)O1,percent Bodipy-positive cells,[1],6.38 ± 1.7%
O=c1c2ccccc2[nH]c(=S)n1CCN1CCC(=C(c2ccc(F)cc2)c2ccc(F)cc2)CC1,percent Bodipy-positive cells,[3],14.3 ± 7.6%
same,percent Bodipy-positive cells,[4],15.8 ± 6.4%
same,percent Bodipy-positive cells,[5],9.54 ± 1.7%
same,percent Bodipy-positive cells,[1],8.1 ± 0.24%
O=c1c2ccccc2[nH]c(=S)n1CCN1CCC(=C(c2ccc(F)cc2)c2ccc(F)cc2)CC1 [Diacylglycerol Kinase Inhibitor II],percent Bodipy-positive cells,[6],5.01 ± 1.7%
same,percent Bodipy-positive cells,[1],25.9 ± 7.5%
CC(=O)/N=c1/sc(S(N)(=O)=O)nn1C [Methazolamide],percent Bodipy-positive cells,,7.09 ± 3.1%
same,percent Bodipy-positive cells,[6],8.66 ± 1.1%
same,percent Bodipy-positive cells,[1],35.3% and 32.6% and 28.5%
CC1=CC(=O)c2ccccc2C1=O [Menadione],percent Bodipy-positive cells,[6],8.04 ± 4.1%
same,percent Bodipy-positive cells,[7],100%
CCCCC[C@](C)(O)/C=C/[C@@H]1[C@@H](C/C=C\CCCC(=O)O)[C@@H](O)C[C@H]1O [15(S)-15-methyl Prostaglandin F2.alpha.],percent Bodipy-positive cells,[2],17.7 ± 0.61%
Cc1ccc(C(=O)N(CCCN)[C@@H](c2nc3cc(Cl)ccc3c(=O)n2Cc2ccccc2)C(C)C)cc1,percent Bodipy-positive cells,[6],49.5 ± 20%
same,percent Bodipy-positive cells,[1],100%
N=C(N)N1CCc2ccccc2C1 [Debrisoquin sulfate],percent Bodipy-positive cells,,60.6 ± 45%
same,percent Bodipy-positive cells,library stock concentration: 7.3 mM,2.46 ± 3.5%
same,percent Bodipy-positive cells,[1],30.6 ± 1.1%
COCCCOc1cc(C[C@@H](C[C@H](N)[C@@H](O)C[C@H](C(=O)NCC(C)(C)C(N)=O)C(C)C)C(C)C)ccc1OC,percent Bodipy-positive cells,[1],43.2 ± 18%
COCCCOc1cc(C[C@@H](C[C@H](N)[C@@H](O)C[C@H](C(=O)NCC(C)(C)C(N)=O)C(C)C)C(C)C)ccc1OC [Aliskiren Hemifumarate],percent Bodipy-positive cells,[6],6.93 ± 0.21%
same,percent Bodipy-positive cells,[1],10.9 ± 0.75%
CNCCCCOc1ccccc1Cc1ccccc1 [Bifemelane],percent Bodipy-positive cells,[1],79.3 ± 11%
NC(=O)Nc1cc(-c2ccccc2)sc1C(N)=O [IKK-2 Inhibitor XI],percent Bodipy-positive cells,[6],11 ± 2.6%
OCCC#Cc1nc(-c2ccc(F)cc2)c(-c2ccncc2)n1CCCc1ccccc1,percent Bodipy-positive cells,[4],27.6 ± 8.5%
same,percent Bodipy-positive cells,[5],25.1 ± 6.7%
same,percent Bodipy-positive cells,[1],66.06 ± 0.37%
C#C[C@]1(OC(C)=O)CC[C@H]2[C@@H]3CCC4=CC(=O)CC[C@@H]4[C@H]3CC[C@@]21C [Norethindrone acetate],percent Bodipy-positive cells,[8],7.33 ± 4.5%
same,percent Bodipy-positive cells,[1],10.7 ± 0.3%
C#C[C@]1(OC(C)=O)CC[C@H]2[C@@H]3CCC4=CC(=O)CC[C@@H]4[C@H]3CC[C@@]21C,percent Bodipy-positive cells,[1],62.4 ± 8.6%
CCCCOC(=O)c1ccc(O)cc1 [Butylparaben],percent Bodipy-positive cells,,19.5 ± 2.7%
CCCc1nc2c(C)cc(-c3nc4ccccc4n3C)cc2n1Cc1ccc(-c2ccccc2C(=O)O)cc1 [Telmisartan],percent Bodipy-positive cells,[6],10.7 ± 8.8%
same,percent Bodipy-positive cells,[1],11.6% and 24.5%
CCCc1nc2c(C)cc(-c3nc4ccccc4n3C)cc2n1Cc1ccc(-c2ccccc2C(=O)O)cc1,percent Bodipy-positive cells,[1],9.52 ± 2.9%
"O=C(O)Cc1ccc(O)c(O)c1 [3,4-Dihydroxyphenylacetic acid]",percent Bodipy-positive cells,[1],46.3 ± 20%
CN(C)c1cc(NC(=O)CNC(C)(C)C)c(O)c2c1CC1CC3C(N(C)C)C(=O)C(C(N)=O)=C(O)C3(O)C(=O)C1=C2O (stereo not given) [Tigecycline],percent Bodipy-positive cells,[6],6.55 ± 2.4%
same,percent Bodipy-positive cells,[1],17.4 ± 9.2%
CCCCC1C(=O)N(c2ccccc2)N(c2ccccc2)C1=O [Phenylbutazone],percent Bodipy-positive cells,[2],11.4 ± 3%
same,percent Bodipy-positive cells,[6],11.2 ± 4.2%
same,percent Bodipy-positive cells,[1],19.4% and 12.5% and 18.1%
Nc1ncnc2c1nc(Br)n2[C@@H]1O[C@@H]2COP(=O)(O)O[C@H]2[C@H]1O [8-Bromo-cAMP],percent Bodipy-positive cells,library stock concentration: 12.3 mM,26.8 ± 5.3%
"Nc1ncnc2c1nc(Br)n2[C@@H]1O[C@@H]2COP(=O)(O)O[C@H]2[C@H]1O [8-Bromo-cAMP, sodium salt]",percent Bodipy-positive cells,[1],9.6 ± 4.2%
O=C(Nc1ccc2[nH]nc(-c3ccncc3)c2c1)[C@@H]1CCN(CC(=O)N2CCN(c3ccc(-c4ncccn4)cc3)CC2)C1,percent Bodipy-positive cells,[3],9.61 ± 1.6%
same,percent Bodipy-positive cells,[4],10.8 ± 2.1%
same,percent Bodipy-positive cells,[5],13.3 ± 2.9%
CCCCCCCCCCCCCCCCCC(=O)NCCS(=O)(=O)O [N-Stearoyl Taurine],percent Bodipy-positive cells,[2],9.75 ± 0.51%
CCCCC[C@@H](O)[C@H]1C(=O)O[C@H](C)[C@@H](O)/C=C/C=C/C=C/C=C/C=C(\C)[C@@H](O)C[C@H](O)C[C@H](O)C[C@H](O)C[C@H](O)C[C@H](O)C[C@@H]1O [Filipin],percent Bodipy-positive cells,library stock concentration: 3.1 mM,4.55 ± 0.67%
CCCCC[C@@H](O)[C@H]1C(=O)O[C@H](C)[C@@H](O)/C=C/C=C/C=C/C=C/C=C(\C)[C@@H](O)C[C@H](O)C[C@H](O)C[C@H](O)C[C@H](O)C[C@H](O)C[C@@H]1O [Filipin III],percent Bodipy-positive cells,[2],7.205 ± 0.039%
N=C(N)SCCN [2-(2-Aminoethyl)isothiourea dihydrobromide],percent Bodipy-positive cells,[1],42.2 ± 1.6%
N=C(N)SCCN [S-(2-aminoethyl) Isothiourea (dihydrobromide)],percent Bodipy-positive cells,[2],15.8 ± 1.4%
